From PubChem BioAssay AID2417 (National Center for Advancing Translational Sciences (NCATS), 2010)
About 4,300 (3.1%) of roughly 140,000 compounds were called active. The inconclusive results got no clear call from the source; some entries with a clear call stand among them for comparison.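 How the source made its calls: active means readout at or below -70, meaning at least 70% loss of cells showing the perinucleolar compartment, a nuclear body marking cancer cells; inconclusive means readout between -30 and a set limit; inactive means the rest.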

Assay: High Content Assay for Compounds that inhibit the Assembly of the Perinucleolar Compartment;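 further: plate controls were DMSO wells for no effect and camptothecin positive control wells for full effect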
Conditions: PC3M PTB-GFP, PNC prevalence imaging, 16 h; at 10 µM; stronger effect = lower value
Summary of the method: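 Compounds are pinned in duplicate onto adhered PC3M cells stably expressing GFP-tagged PTB and incubated 16 h at 37 C. Cells are then fixed, nuclei stained with Hoechst, and PNC-positive cells counted.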

SMILES	activity change (PNC), negative = inhibition
CCn1c(SCC(=O)NC2CCCCC2)nnc1-c1cccs1	inconclusive: -32.6%
COC(=O)c1ccc(C2NC(C(=O)O)CS2)cc1 (configuration not stated)	inconclusive: -56.9%
CCOC(=O)c1c(NC(=O)c2cccnc2)sc(C(C)=O)c1C	inactive: 13.8%
Cc1ccc2c(c1)CC1(CN2C)C(=O)OC2(CCCCC2)OC1=O	inconclusive: -37.2%
Cc1cc(/C=C2\SC(=S)NC2=O)c(C)n1C1CC1	inactive: 127%
Cc1occc1C(=O)N/N=C/c1ccc(Cl)c([N+](=O)[O-])c1	inconclusive: -60.5%
CCN1CCN(Cc2ccc(NC(=O)Nc3ccccc3OC)cc2)CC1	inconclusive: -44.8%
Cc1ccc(S(=O)(=O)N/N=C/c2cccc([N+](=O)[O-])c2)cc1	inconclusive: -51.3%
NC1=NC(=Nc2cccc(Cl)c2)c2ccccc21	inconclusive: -33.2%
O=c1[nH]c(-c2ccccc2)cs1	inconclusive: -47.3%
CCC(C)NC(=O)CSc1nc2ccccc2c(=O)n1CCCC(=O)NCC1CCCO1 (configuration not stated)	inconclusive: -42.3%
CCNc1nc(N)nc(Oc2ccc(OCC)nn2)n1	inconclusive: -41.7%
CC(=O)Nc1cccc2c1C(=O)NC2=O	inconclusive: -49.9%
CCOc1ccc2c(=O)c(-c3ccc4c(c3)OCCCO4)c(C)oc2c1	inconclusive: -64.9%
O=S(=O)(c1cccc(F)c1)N1CCN(Cc2ccc3c(c2)OCO3)CC1	inconclusive: -52.8%
COc1ccc(OC)c(N2Cc3ccccc3C2)c1	inconclusive: -35.2%
CCOc1ccccc1N1CCN(CC(=O)Nc2nnc(CC)s2)CC1	inconclusive: -56.5%
O=C(COc1ccccc1)N1CCN=C1c1ccccc1	inactive: 13.5%
C#CCN(C#N)c1nc(NCC)nc(NC(C)C)n1	inconclusive: -35.8%
O=S(=O)(Nc1nc2ccccc2nc1Nc1ccc2c(c1)OCO2)c1ccc(F)cc1	active: -83.6%
O=C(Nc1ccccc1C(=O)N1CCCC1)c1cccc(S(=O)(=O)N2CCCCC2)c1	inactive: 32.4%
COc1ccc2nc(SCC(=O)O)nc(C)c2c1	inconclusive: -44.3%
Cc1nc2scc(-c3cccs3)c2c(=O)[nH]1	inconclusive: -41.2%

SMILES	activity change (PNC), negative = inhibition
CN(C)CCN1C(=O)C(O)=C(C(=O)c2cc3ccccc3o2)C1c1ccc(N(C)C)cc1 (configuration not stated)	active: -119%
COc1cc(=O)n(C)c2cc(N(C)C)ccc12	inconclusive: -49.5%
Clc1cccc(Cl)c1CNC1CCCC1	inactive: 22.2%
COC(=O)c1ccccc1NC(=O)CN1CCC(n2nnc3cc(C(F)(F)F)ccc32)CC1	inconclusive: -39.7%
CCCCCn1c(CN2CCN(c3cc(Cl)ccc3C)CC2)nc2c1c(=O)[nH]c(=O)n2C	inactive: -15.9%
O=C(c1ccco1)N1CCN(c2nc(C3CC3)nc3c2nnn3Cc2ccccc2Cl)CC1	inactive: -12.8%
Cc1ccc(-c2nc3cc(N)ccc3o2)cc1	inconclusive: -69.3%
CCCOC(=O)c1c(N)sc2c1CCC2	inactive: -17.7%
CCOc1ccc(N2C(=O)CC(NC3CCCCNC3=O)C2=O)cc1 (configuration not stated)	inconclusive: -35.2%
CCOC(=O)c1ccccc1-n1c(C)cc(C2N=C(N)Nc3nc4ccccc4n32)c1C (configuration not stated)	inactive: -17.1%
NC(=O)[C@@H]1CCCNc2c(I)cc([N+](=O)[O-])cc2C(=O)N[C@@H](CCCN=C(N)N)C(=O)N[C@@H](CCCN=C(N)N)C(=O)N1	inactive: 16%
CCOC(=O)Cc1csc(SCC(=O)NC2CCCC(C)C2C)n1 (configuration not stated)	inconclusive: -51.4%
COC(=O)c1cc2n(n1)CCN(Cc1ccc(F)cc1)C2=O	inconclusive: -31.9%
COc1ccccc1NC(=O)CSc1nnc(-c2ccc(NC(C)=O)cc2)n1C	inactive: -2.28%
Cc1ccc(-c2cc(C(=O)NCc3ccco3)c3ccccc3n2)o1	inconclusive: -41.1%
CN1C(CC(=O)c2ccccc2)CCCC1CC(O)c1ccccc1 (configuration not stated)	active: -110%
O=C(c1ccccc1)c1ncc(C(F)(F)F)cc1Cl	inactive: 27.1%
CCOC(=O)N1CCN(c2c(NCCCN(CC)Cc3ccccc3)c(=O)c2=O)CC1	inconclusive: -44.6%
CCOC(=O)c1c(N2CCCCC2)c2ccccc2[nH]c1=O	inconclusive: -78.9%
COCc1nnc(NS(=O)(=O)c2ccc(NC(C)=O)cc2)s1	inconclusive: -30.1%
CN=C(NC#N)SCC(=O)c1ccc(Cl)cc1Cl	inconclusive: -65.8%
N#C/C(=C/c1ccc(-c2ccc(S(N)(=O)=O)cc2)o1)c1nc2ccccc2s1	inconclusive: -32.5%
N#Cc1c(-c2ccco2)c2c([nH]c1=S)CCCC2	inconclusive: -43%

SMILES	activity change (PNC), negative = inhibition
N#CCCN/N=C(/Cc1nc2ccccc2[nH]1)c1cccc(Cl)c1	inactive: -16%
Cc1ccc(S(=O)(=O)NCc2ccc(C(=O)N(C)CCC#N)cc2)cc1	inconclusive: -36.4%
COc1ccc(N(CC(=O)Nc2cccc([N+](=O)[O-])c2C)S(C)(=O)=O)cc1OC	inconclusive: -71%
CCN(CC)c1ccc(C=Nc2ccc(C#N)cc2)c(O)c1	inactive: 26.4%
COc1ccc(-c2cc(C(F)(F)F)nc(SCCC(=O)NCc3ccccc3)n2)cc1	inconclusive: -40.2%
Cc1ccc(-c2cccc(OC(=O)c3ccccc3F)c2)cc1	inconclusive: -35.3%
NNC(=O)c1nc(-c2ccccc2)n2c1CCCCC2	inconclusive: -39%
CN(C)c1ccc(C(=O)c2ccc(N(C)C)c3ccccc23)cc1	active: -103%
Cc1ccc(-n2c(=O)c3sccc3n(Cc3cc(=O)n4ccccc4n3)c2=O)cc1F	inactive: -6.11%
CCCCc1ccc(NC(=S)Nc2ccc(Nc3ccc(OC)cc3)cc2)cc1	inactive: 10.8%
COc1cc(/C=C2/C(=O)N(c3ccccc3)N=C2C)ccc1OS(=O)(=O)c1ccccc1	inconclusive: -32.8%
Cc1cc(Oc2ccccc2)nc2ccc(O)cc12	inconclusive: -69.5%
CCN(CC)S(=O)(=O)N1CCC(C(=O)NC2CCCc3ccccc32)CC1 (configuration not stated)	inactive: 358%
Cc1ccccc1Nc1nc(-c2sc(NC(=O)c3cccc(Cl)c3)nc2C)cs1	inconclusive: -35.8%
COC(=O)Cc1ccc(NC(=S)NCCCO)cc1	inconclusive: -57.4%
Cc1c(Br)cc(C(=O)N2CCCCCC2)c(C)c1C	inconclusive: -38%
FC(F)(F)c1nnc2ccc(N3CCN(c4ccccc4)CC3)nn12	inconclusive: -43.3%
COc1ccccc1CC(=O)Nc1ccccc1C(=O)O	inconclusive: -38.6%
Cc1ccc(NC(=O)CO/N=C(\N)c2nonc2N)cc1	inconclusive: -40.8%
CCC(Cc1ccccc1)NC(=O)C1CCN(S(=O)(=O)c2c(C)noc2C)CC1 (configuration not stated)	inconclusive: -46.1%
Brc1cccc(OCCOCCn2ccnc2)c1	inconclusive: -50%
COc1ccc(-n2nnnc2-c2ccccc2)cc1	active: -82.5%
COc1ccc(C(CC(=O)O)NC(=O)c2ccco2)cc1 (configuration not stated)	inconclusive: -36.5%

SMILES	activity change (PNC), negative = inhibition
CCCCCNC(=O)C1CC=CCC1C(=O)O (configuration not stated)	inconclusive: -33.8%
C/C=C/Cn1c(SCc2ccc(C)cc2)nc2c1c(=O)[nH]c(=O)n2C	inconclusive: -37.6%
Cc1cccc(OCc2nnc(SCC(=O)Nc3sc(C)c(C)c3C#N)n2C)c1	inconclusive: -56.1%
Cc1noc(C)c1COC(=O)Cc1ccc(Cl)cc1	inactive: 22.9%
O=C(Nc1cc(C(F)(F)F)ccc1N1CCCC1)c1cccnc1	active: -89.5%
CCCCC(=O)Nc1cccc(NC(=O)c2ccc3c(c2)OCO3)c1	inconclusive: -59.7%
CC(C)C(c1nnnn1Cc1ccc(F)cc1)N1CCN(Cc2ccc3c(c2)OCO3)CC1 (configuration not stated)	inconclusive: -67.5%
COC(=O)C1=C(C)OC(N)=C(C#N)C1c1ccco1 (configuration not stated)	inconclusive: -44.3%
CSCC[C@H](NC(=O)Nc1ccc(C)cc1)C(=O)O	inconclusive: -46.2%
CCSc1nnc(NC(=O)CSc2nc3c(c(=O)n2CC)SC(C)C3)s1 (configuration not stated)	inactive: -18.5%
C=C(C)Cn1c(CCCNC(=O)C(C)(C)C)nc2ccccc21	inconclusive: -30.3%
CCn1c2ccccc2c2cc(NC(=O)CSc3nnc(-c4cccc(F)c4)o3)ccc21	inconclusive: -48.3%
COC(=O)c1c(NC(=O)CN2CCN(c3ccccc3Cl)CC2)sc(C)c1C	inactive: 15%
COc1ccc(C(O)C(CC(=O)NCCCOC(C)C)C(=O)NCCCOC(C)C)cc1OC (configuration not stated)	inconclusive: -79.5%
Cn1cnnc1SCC(=O)Nc1sc2c(c1C#N)CCCCC2	inconclusive: -38.3%
Cc1ccc2c(c1)[nH]c1c(=O)n(CCCN3CCOCC3)cnc12	inconclusive: -36.4%
C/C(Cn1nc([N+](=O)[O-])cc1C)=N\NC(=O)COc1c(Cl)cc(Cl)cc1Cl	inconclusive: -43.7%
O=C(CCN1C(=O)C2C3C=CC(C3)C2C1=O)NCCc1ccccc1 (configuration not stated)	active: -93.1%
COc1ccccc1N1CCN(C(=O)CN(c2ccccc2OC)S(=O)(=O)c2ccccc2)CC1	inactive: 43.8%
O=C(CSc1ncccn1)N1CCN(Cc2ccccc2)CC1	inconclusive: -32.6%
CCCC/C=C/C(NC(=O)CCc1ccccc1)c1ccccc1 (configuration not stated)	active: -119%
Cc1cc(Nc2ccc(F)cc2Cl)n2nc(C)nc2n1	inconclusive: -63.1%
O=C(O)c1cc2c(ccc3ccccc32)oc1=O	inconclusive: -42.2%

Arranged by length of the SMILES (high to low): some entries from above.
SMILES	activity change (PNC), negative = inhibition
COC(=O)c1c(NC(=O)CN2CCN(c3ccccc3Cl)CC2)sc(C)c1C	inactive: 15%
Cc1ccc2c(c1)[nH]c1c(=O)n(CCCN3CCOCC3)cnc12	inconclusive: -36.4%
O=C(Nc1cc(C(F)(F)F)ccc1N1CCCC1)c1cccnc1	active: -89.5%
O=C(O)c1cc2c(ccc3ccccc32)oc1=O	inconclusive: -42.2%
